Measurements as given in patent publication US11401511B2, “Mumps virus as a potential oncolytic agent” (Mayo Foundation for Medical Education and Research, priority 2015, dated 2022).
At least one compound was matched to its structure with a doubt left.

Legend:
Settings in all cases: treated 48 hours, then rMuV-UC-GFP M.O.I. 10, images 5 days post-infection
[1] = test system: human myeloma (MM1) cells; assay: Effect of Janus kinase inhibitor on rMuV-UC-GFP infectivity, MM1; type: cell-based
plasmacytoma (MPC11) = assay: Effect of Janus kinase inhibitor on rMuV-UC-GFP infectivity, MPC11; type: cell-based, mouse
[2] = test system: CT-26 colon carcinoma cells; assay: Effect of Janus kinase inhibitor on rMuV-UC-GFP infectivity, CT-26; type: cell-based, mouse
rat glioma (C6) = assay: Effect of Janus kinase inhibitor on rMuV-UC-GFP infectivity, C6; type: cell-based
[3] = test system: mouse lung carcinoma (LLC) cells; assay: Effect of Janus kinase inhibitor on rMuV-UC-GFP infectivity, LLC; type: cell-based

N#CC[C@H](C1CCCC1)n1cc(-c2ncnc3[nH]ccc23)cn1 [Ruxolitinib]
effect of treatment on viral infection [1]: not
effect of treatment on viral infection (plasmacytoma (MPC11)): not
effect of treatment on viral infection [2]: to some extent
effect of treatment on viral infection (rat glioma (C6)): increased the viral infection significantly
effect of treatment on viral infection [3]: increased the viral infection significantly
